Laboratory results: PubChem BioAssay AID1259254 (NCATS, 2017)

- Aim: 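Genome-wide screen for genes that prevent DNA re-replication in cancer cells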 (primary screen)
- Cells: human HCT116 colorectal cancer cells
- Reagents: single siRNA against human genes
- Duration: 3 days
- Measured: 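Nuclei stained with Hoechst and imaged; cell-cycle phase assigned by DNA content; G2 share scaled per plate, non-targeting siRNA 0%, GMNN siRNA 100%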
- Direction: G2 robust z-score and G2 cells, % of GMNN control: higher = more G2 cells, more excess DNA replication
- Call rule: 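An siRNA counts as active if its G2 robust z-score lies at least 5 MADs above the screen median; here such calls match roughly 38% of GMNN control or more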
In all, the deposit lists about 59,000 reagents; below is a random part of them. About 1,550 of all reagents (2.6%) count as active. 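G2 share is only a proxy for re-replication; each gene was hit by three separate siRNAs, and active genes were retested.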 Reagents against one gene are numbered here. Further read-outs or replicates are left out here. The record does not give: the amount of reagent.

gene | siRNA no. | G2 robust z-score | G2 cells, % of GMNN control | call
SLC39A12 | 1 | 0.724 | 8.06 | inactive
SLC39A12 | 2 | 1.53 | 13.7 | inactive
SLC39A12 | 3 | -0.55 | -0.901 | inactive
OPALIN | 1 | -0.58 | -1.12 | inactive
OPALIN | 2 | 1.54 | 13.8 | inactive
OPALIN | 3 | -0.0428 | 2.67 | inactive
HAUS1 | 1 | 0.997 | 9.98 | inactive
HAUS1 | 2 | -0.242 | 1.27 | inactive
HAUS1 | 3 | 0.234 | 4.61 | inactive
PNPT1 | 1 | -0.345 | 0.542 | inactive
PNPT1 | 2 | 0.191 | 4.31 | inactive
PNPT1 | 3 | 4.53 | 34.8 | inactive
SCD | 1 | -0.0713 | 2.47 | inactive
SCD | 2 | 0.903 | 9.32 | inactive
SCD | 3 | -0.0329 | 2.74 | inactive
HES5 | 1 | 1.44 | 13.1 | inactive
HES5 | 2 | 0.403 | 5.8 | inactive
HES5 | 3 | 2.54 | 20.9 | inactive
ISYNA1 | 1 | -1.01 | -4.16 | inactive
ISYNA1 | 2 | -0.173 | 1.75 | inactive
ISYNA1 | 3 | 0.0973 | 3.65 | inactive
CRYBB2 | 1 | 1.47 | 13.3 | inactive
CRYBB2 | 2 | -0.315 | 0.754 | inactive
CRYBB2 | 3 | 0.413 | 5.88 | inactive
TTC29 | 1 | -0.463 | -0.293 | inactive
TTC29 | 2 | 0.145 | 3.99 | inactive
TTC29 | 3 | -0.841 | -2.95 | inactive
CRACR2B | 1 | -0.628 | -1.45 | inactive
CRACR2B | 2 | -0.572 | -1.05 | inactive
CRACR2B | 3 | 1.19 | 11.3 | inactive
SALL1 | 1 | 0.302 | 5.09 | inactive
SALL1 | 2 | 0.36 | 5.5 | inactive
SALL1 | 3 | 3.11 | 24.8 | inactive
RACGAP1 | 1 | 3.98 | 31 | inactive
RACGAP1 | 2 | 4 | 31.1 | inactive
RACGAP1 | 3 | 7.58 | 56.3 | active
PPFIBP1 | 1 | 1.18 | 11.2 | inactive
PPFIBP1 | 2 | -0.399 | 0.158 | inactive
PPFIBP1 | 3 | 1.11 | 10.7 | inactive
PHLDA3 | 1 | 2.49 | 20.5 | inactive
PHLDA3 | 2 | 0.667 | 7.66 | inactive
PHLDA3 | 3 | -0.572 | -1.06 | inactive
MYL4 | 1 | -0.826 | -2.84 | inactive
MYL4 | 2 | -0.797 | -2.64 | inactive
MYL4 | 3 | 0.485 | 6.38 | inactive
CYP21A2 | 1 | -0.00434 | 2.94 | inactive
CYP21A2 | 2 | 0.943 | 9.6 | inactive
CYP21A2 | 3 | -0.211 | 1.48 | inactive
CEP41 | 1 | -0.0147 | 2.86 | inactive
CEP41 | 2 | -0.363 | 0.413 | inactive
CEP41 | 3 | 0.98 | 9.86 | inactive
DGCR6 | 1 | -0.415 | 0.0508 | inactive
DGCR6 | 2 | 1.01 | 10.1 | inactive
DGCR6 | 3 | -0.0926 | 2.32 | inactive
TAS2R40 | 1 | 0.143 | 3.97 | inactive
TAS2R40 | 2 | 0.298 | 5.06 | inactive
TAS2R40 | 3 | -0.164 | 1.82 | inactive
LARP1BP1 | 1 | -0.0057 | 2.93 | inactive
LARP1BP1 | 2 | -0.239 | 1.28 | inactive
LARP1BP1 | 3 | -0.966 | -3.83 | inactive
RPS16P5 | 1 | 0.28 | 4.93 | inactive
RPS16P5 | 2 | 0.648 | 7.53 | inactive
RPS16P5 | 3 | -0.439 | -0.122 | inactive
OR5D18 | 1 | 0.661 | 7.61 | inactive
OR5D18 | 2 | 0.273 | 4.89 | inactive
OR5D18 | 3 | 0.354 | 5.46 | inactive
ABCC11 | 1 | -0.488 | -0.467 | inactive
ABCC11 | 2 | -0.521 | -0.698 | inactive
ABCC11 | 3 | 0.496 | 6.46 | inactive

Hits, of those listed so far:
gene | siRNA no. | G2 robust z-score | G2 cells, % of GMNN control | call
RACGAP1 | 3 | 7.58 | 56.3 | active
